Results reported in paper PMC11492869, “Dimerization and lysine substitution of melittin have differing effects on bacteria” (Frontiers in Pharmacology, 2024).
In brackets after ≈: the same amount, converted by molar mass.

Test system: S. aureus ATCC 29213
Experiment: Minimum inhibitory concentration (modified CLSI broth microdilution)
Format: cell-based
Conditions: Staphylococcus aureus, ATCC29213, cation-adjusted MHB, 1 × 10^5 cells/well, 90 min incubation with peptide at 37°C, then growth monitored 20 h at OD630, Lambert and Pearson analysis, mean ± SD, at least three biological repeats
Protocol: For the antimicrobial peptide assays, a 10 mL starter culture was produced by taking single colonies from LB agar plates to inoculate in Lysogeny/Luria Broth (1% w/v Oxoid Tryptone, 0.5% w/v NaCl, 0.5% w/v Oxoid Yeast Extract, pH 7.0, Thermo Scientific Pty, Ltd., Sydney, Australia) for bacteria; S. aureus ATCC 29213 and E. coli ATCC 8739 were grown aerobically at 37°C in an orbital shaker (Minitron, Infors HT) at 200 rpm. After overnight incubation, 0.5–1.0 mL of the starter culture was used to inoculate fresh LB broth (20 mL), and its growth was monitored at 600 nm using a spectrophotometer (model Varian Cary 50 Bio UV-Vis). Bacteria were harvested during the late exponential growth phase, and CFUs/mL were determined using the growth curve data set that correlated OD600 to CFUs/mL.
Antibacterial assays were undertaken to determine the minimum inhibitory concentration (MIC), the minimum bactericidal concentration (MBC), and the level of membrane disruption of each of the antimicrobial peptides (AMPs) and multimerized AMPs. For each bacterium, a stock solution (2 × 10^6 cells/mL) in cation-adjusted Mueller Hinton Broth (MHB) was made, and an aliquot was incubated with AMPs within 15 min from viable cell count and stock preparation. […] After the 90-min incubation period, the antimicrobial activity (MIC and MBC) was determined as follows: […]

For `CN[C@H](CC(C)C)C(=O)N[C@H]1C(=O)N[C@@H](CC(N)=O)C(=O)N[C@H]2C(=O)N[C@H]3C(=O)N[C@H](C(=O)N[C@H](C(=O)O)c4cc(O)cc(O)c4-c4cc3ccc4O)[C@H](O)c3ccc(c(Cl)c3)Oc3cc2cc(c3O[C@@H]2O[C@H](CO)[C@@H](O)[C@H](O)[C@H]2O[C@H]2C[C@](C)(N)[C@H](O)[C@H](C)O2)Oc2ccc(cc2Cl)[C@H]1O` [Vancomycin], which MIC is on record?
The MIC was 1.8 ± 0.4 µM (≈ 2.61 µg/mL).
